PubChem BioAssay AID1259316 | Drosophila RNAi Screening Center, 2017

Test: 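Knock-downs that make S2R+ cells more or less sensitive to manganese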
Cell system: Drosophila S2R+ cells
Reagent: long dsRNA against Drosophila genes
Duration: 5 days (4 days knock-down, then 1 day with metal)
Challenge: manganese chloride added to 15 mM for the last 24 hours
Measured: 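After 4 days of knock-down, cells got 15 mM manganese chloride for 1 day; ATP measured by luciferase light as viability, z-scored, mean of two replicates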
Direction: ATP z-score, set 1 (call basis) and ATP z-score: higher = more ATP, more viable cells under manganese
Call rule: 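a reagent is called active when its set 1 ATP z-score exceeds 1.5 or falls below -1.5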
Meaning of the calls: active = ATP shifted up or down; inactive = no clear ATP shift
Here is a random part of 95 reagents tested. 12 of them (13%) count as active. 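Calls follow set 1 z-scores only; applying the same cut-off to set 2 alone does not give the same calls.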 Entries without a mark were called inactive. Reagents against one gene are numbered here. Not given: the amount of reagent.

gene | dsRNA no. | ATP z-score, set 1 (call basis) | ATP z-score, set 2
anne (anne boleyn) | 1 | -0.695 | 0.0281
anne (anne boleyn) | 2 | -0.203 | -0.356
ZnT86D (Zinc transporter 86D) | 1 | -0.334 | -0.185
ZnT86D (Zinc transporter 86D) | 2 | 0.0112 | 1.04
Rbcn-3A (Rabconnectin-3A) | 1 | 0.0555 | -0.366
Rbcn-3A (Rabconnectin-3A) | 2 | 0.994 | 1.7
Zip99C (Zinc/iron regulated transporter-related protein 99C) | 1 | -0.312 | -0.332
Zip99C (Zinc/iron regulated transporter-related protein 99C) | 2 | 0.828 | 0.403
foi (fear-of-intimacy) | 1 | -1.6 (active) | -1.45
foi (fear-of-intimacy) | 2 | 0.153 | 0.123
